Measured values as given in PMC12670160, “A drug-repurposing screen of FDA- and EMA-approved drugs identifies two NF-κB inhibitors active against eumycetoma” (Journal of Antimicrobial Chemotherapy, 2025).
Where a name gives a salt, the structure may show the parent alone. Among all 5,300 compounds or so, about 130 (2.5%) showed an effect of 50% or more. This is one part of the list.

The compounds below were run on M. mycetomatis strain mm55. Conditions: primary screen, metabolic activity vs growth control; 96 h, 2 µM; inhibitor.

SMILES	% viability [%]
O=C(N[C@H]1CCN(C(=O)c2cc(C(F)(F)F)cc(C(F)(F)F)c2)[C@H](Cc2ccc(Cl)cc2)C1)c1ccnc2ccccc12 [ONC0001036, nkp608]	91.17
Nc1ccccc1S(N)(=O)=O [ONC0002929, 2aminobenzenesulfonamide]	63.8
COc1ccccc1Oc1c(NS(=O)(=O)c2ccc(C(C)(C)C)cc2)nc(-c2ncccn2)nc1OCCO [ONC0004331, bosentan hydrate]	88.36
COc1cc(C(=S)N2CCOCC2)cc(OC)c1OC [ONC0003521, sulmetozine]	115.3
CCS(=O)(=O)N(C)[C@@H]1c2cc(C#N)ccc2OC(C)(C)[C@H]1O.CCS(=O)(=O)N(C)[C@H]1c2cc(C#N)ccc2OC(C)(C)[C@@H]1O [ONC0001571, chromanol]	78.85
CNC(=O)COC(=O)NCCC1CCN(c2cccc(C)n2)CC1 [ONC0004429, sa47]	123
CC(C)[N+](C)(CCOC(=O)C1c2ccccc2Oc2ccccc21)C(C)C [ONC0000490, propantheline bromide]	65.5
CN1CCN2c3c(cccc31)[C@@H]1CN(CCCC(=O)c3ccc(F)cc3)CC[C@@H]12 [ONC0001244, lumateperone tosylate]	56.09
CN1CCC[C@@H]1Cc1c[nH]c2ccc(CCS(=O)(=O)c3ccccc3)cc12 [ONC0001863, eletriptan]	100.4
CC1(N)CCN(c2cnc(-c3cccc(Cl)c3Cl)c(N)n2)CC1 [ONC0002240, shp099 hydrochloride]	79.27
O=S(=O)(Oc1ccc(Cl)cc1)c1ccc(Cl)cc1 [ONC0005320, chlorfenson]	128.7
CC(C)OC(=O)c1cc2c(OCC(O)CNC(C)(C)C)cccc2[nH]1 (stereo not drawn) [ONC0002751, sdz21009]	85.54
Cc1c(OCc2cccc(-c3ccc(C(=O)O)cc3)c2)cc2c(c1C)C(=O)C(C1CCCC1)C2 (stereo not drawn) [ONC0001611, bina]	87.09
CC(C)[C@@]1(NC(=O)[C@@H]2C[C@@H]3c4cccc5[nH]cc(c45)C[C@H]3N(C)C2)O[C@@]2(O)[C@@H]3CCCN3C(=O)[C@H](Cc3ccccc3)N2C1=O [ONC0001506, dihydroergocristine]	93.64
CN/C(=C\[N+](=O)[O-])NCCSCc1ccc(CN(C)C)o1 [ONC0000620, ranitidine hydrochloride]	88.41
Cc1c(C(=O)NCc2cccnc2)nn(-c2ccc(Cl)cc2Cl)c1-c1ccc(Cl)cc1 [ONC0001432, mj15]	60.06
COc1ccc(-c2cc(=S)ss2)cc1 [ONC0001189, anethole trithione]	98.01
Cc1cc(C(C)(C)C)c(O)c(C(C)(C)C)c1 [ONC0005316, butylated hydroxytoluene]	71.9
COc1ccc(NS(=O)(=O)c2sc3ccc(Cl)cc3c2C)cc1N1CCNCC1 [ONC0005236, sb 271046]	123.6
COc1cc(OC2CCN(C)CC2)ccc1Nc1ncc2c(n1)n(C1CCCC1)c(=O)n2C [ONC0002621, az3146]	77.21

SMILES	% viability [%]
C/C(=C\c1csc(C)n1)[C@@H]1C[C@@H]2O[C@]2(C)CCC[C@H](C)[C@H](O)[C@@H](C)C(=O)C(C)(C)[C@@H](O)CC(=O)N1 [ONC0000757, ixabepilone]	82.26
N#C/C(=C\c1ccc(O)c(O)c1)C(=O)OCCc1cccs1 [ONC0003005, 2tedc]	96.98
CC(C)(C)C(=O)/C(=N/c1ccc(Cl)cc1)NNc1ccc(Cl)cc1 [ONC0001344, ty52156]	79.2
CN1CCN(c2ncc(-c3cc(Cl)cc(Cl)c3Cl)c(N)n2)CC1 [ONC0002609, sipatrigine]	101.5
C1COC(NC(C2CC2)C2CC2)=N1 [ONC0003047, rilmenidine]	64.77
Cn1c(=O)[nH]c2ncn(C)c2c1=O [ONC0002010, paraxanthine]	115.5
C#CCN[C@@H]1CCc2ccccc21 [ONC0004669, rasagiline mesylate]	159.9
COc1cc2ncn(-c3cc(OCc4ccccc4C(F)(F)F)c(C(N)=O)s3)c2cc1OC [ONC0000159, gw843682x]	75.74
OC[C@H]1O[C@@H](n2cnc3c(NC4CCCC4)ncnc32)[C@H](O)[C@@H]1O [ONC0001585, n6cyclopentyladenosine]	72.4
CCOc1nc2cccc(C(=O)OCc3oc(=O)oc3C)c2n1Cc1ccc(-c2ccccc2-c2noc(=O)[nH]2)cc1 [ONC0002404, azilsartan medoxomil]	105.9
CC(C)Oc1ccc(-c2nc(-c3cccc4c3CCC4NCCC(=O)O)no2)cc1C#N (stereo not drawn) [ONC0002706, rp001]	77.26
CC1(C)CCC(C)(C)c2cc(C3(c4ccc(C(=O)O)cc4)OCCO3)ccc21 [ONC0000169, bms649]	80.1
CCCn1c(=O)[nH]c(=O)c2[nH]cnc21 [ONC0001998, 3npropylxanthine]	100.8
COC(=O)Nc1nc2ccc(Sc3ccccc3)cc2[nH]1 [ONC0000641, fenbendazole]	109.2
CCOc1cccc(NC(=O)c2ccc(N3CCCC3)c(C(F)(F)F)c2)c1 [ONC0001854, epptb]	85.67
c1ccc2sc(SN3CCOCC3)nc2c1 [ONC0003734, noxydiethylenebenzothiazole2sulfenamide]	115.2
CC(=O)[C@@]1(O)CC[C@H]2[C@@H]3C[C@H](C)C4=CC(=O)C=C[C@]4(C)[C@@]3(F)[C@@H](O)C[C@@]21C [ONC0000532, fluorometholone]	74.24
CCc1nc(N)nc(N)c1-c1ccc(Cl)cc1 [ONC0003378, pyrimethamine]	66.85
C1CCC(C(CC2CCCCN2)C2CCCCC2)CC1 (stereo not drawn) [ONC0002896, perhexiline maleate]	98.87

As entered above.
Entry for C/C(=C\c1csc(C)n1)[C@@H]1C[C@@H]2O[C@]2(C)CCC[C@H](C)[C@H](O)[C@@H](C)C(=O)C(C)(C)[C@@H](O)CC(=O)N1 [ONC0000757, ixabepilone] under % viability [%]: 82.26
Entry for C1CCC(C(CC2CCCCN2)C2CCCCC2)CC1 (stereo not drawn) [ONC0002896, perhexiline maleate] under % viability [%]: 98.87
